The values below come from paper PMC10205867.

Chains of the proteins cited; added tags and fusions are not shown. Residues count along the entry.
UniProt O75460, residues 19-977: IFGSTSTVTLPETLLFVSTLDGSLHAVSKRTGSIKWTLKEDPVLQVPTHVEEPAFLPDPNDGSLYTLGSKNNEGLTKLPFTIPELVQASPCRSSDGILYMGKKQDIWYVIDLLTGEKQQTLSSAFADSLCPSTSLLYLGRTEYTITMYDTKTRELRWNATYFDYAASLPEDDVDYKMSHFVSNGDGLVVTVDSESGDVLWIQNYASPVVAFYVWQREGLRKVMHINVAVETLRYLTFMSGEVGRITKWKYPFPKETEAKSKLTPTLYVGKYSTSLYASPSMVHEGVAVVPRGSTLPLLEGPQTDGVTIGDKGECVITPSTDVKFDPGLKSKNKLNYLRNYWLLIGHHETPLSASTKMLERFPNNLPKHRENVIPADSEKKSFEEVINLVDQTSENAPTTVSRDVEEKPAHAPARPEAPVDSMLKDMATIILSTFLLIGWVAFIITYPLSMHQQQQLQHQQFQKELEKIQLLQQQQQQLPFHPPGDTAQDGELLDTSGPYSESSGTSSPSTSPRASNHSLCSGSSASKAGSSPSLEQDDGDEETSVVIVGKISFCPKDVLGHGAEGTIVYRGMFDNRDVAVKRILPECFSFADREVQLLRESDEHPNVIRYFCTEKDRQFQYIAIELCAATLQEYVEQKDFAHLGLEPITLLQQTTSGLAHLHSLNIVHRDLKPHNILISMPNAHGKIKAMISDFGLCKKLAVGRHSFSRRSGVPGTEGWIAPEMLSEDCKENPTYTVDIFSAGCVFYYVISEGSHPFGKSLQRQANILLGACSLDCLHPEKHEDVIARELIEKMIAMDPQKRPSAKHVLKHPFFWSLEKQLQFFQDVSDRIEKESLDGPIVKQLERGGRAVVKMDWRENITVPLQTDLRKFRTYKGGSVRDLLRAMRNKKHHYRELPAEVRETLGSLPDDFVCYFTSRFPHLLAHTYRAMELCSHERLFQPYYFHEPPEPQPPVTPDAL

These are yes or no findings as the source states them, for the method shown. Binding seen in cells or lysates may run through a third protein. Some results given as binding are weak or reduced against the parent protein; the word gives no strength. Tags and fused reporters may be left off the sequences shown.

The target of this assay is T1, Flag-tagged PARP16 (Poly (ADP-ribose) polymerases 16) (rat) (UniProt Q5U2Q4).
T1 sequence: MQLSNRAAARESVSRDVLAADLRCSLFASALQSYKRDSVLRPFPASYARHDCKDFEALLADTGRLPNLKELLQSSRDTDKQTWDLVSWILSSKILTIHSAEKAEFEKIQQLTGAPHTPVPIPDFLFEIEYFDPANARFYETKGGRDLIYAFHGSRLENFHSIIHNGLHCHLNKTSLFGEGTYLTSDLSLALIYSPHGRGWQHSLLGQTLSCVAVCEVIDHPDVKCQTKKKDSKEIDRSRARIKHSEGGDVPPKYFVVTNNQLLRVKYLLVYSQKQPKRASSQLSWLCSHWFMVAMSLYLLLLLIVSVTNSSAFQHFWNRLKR
As to the kind of experiment: co-IP; lysate (IP-RIPA buffer) of 293T cells transfected by Flag-tagged PARP16 lentiviruses; 1 mg total protein with 3-5 μg antibody (Flag) overnight at 4 °C, Protein A/G PLUS-Agarose 2 h at RT, washed 4 times; western blot for IRE1α. In general terms: In western blotting, separated proteins are transferred to a membrane and probed.

With “Inositol Requiring Enzyme 1α (IRE1α) (from UniProt O75460 19-977)”, the binding entry is “binds”.
